Measurements reported in PubChem BioAssay AID743454 (Peter MacCallum Cancer Centre, 2014)
In all, the deposit lists about 18,000 reagents; below is an unselected part. 450 of all reagents (2.5%) were called active. 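Single biological run; no consistent viability z cut-off exists, so the class columns, not z-scores, define the calls.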 Unmarked entries are inactive.

Screen: 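Genes whose loss kills vorinostat-resistant colon cancer cells under vorinostat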 (primary screen)
Cells: human HCT116-VR colon cancer cells, selected for vorinostat resistance
Reagent: siRNA pool against human genes, 40 nM siRNA pool
Time to read-out: vorinostat for 24 h, read-out about 72 h after transfection
Treatment: vorinostat at 2.5 µM final
Read-out: 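Cell viability by CellTiter-Fluor and caspase 3/7 activity by luminescence, each scaled to mock wells per plate, duplicates averaged, then robust z-scored over all plates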
Direction: viability robust z-score: higher = more viable cells than screen typical; caspase robust z-score: higher = more caspase 3/7 activity than screen typical
Call rule: 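Hits are knock-downs in viability class RV1/RV2 or caspase class CA1/CA2, excluding ones that killed cells in the no-drug cell-count arm; hits then retested with single siRNAs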

target | viability hit class | caspase hit class | viability robust z-score | caspase robust z-score
NAT10 (GeneID 55226) | no change | no change | -0.16 | -0.9
CNDP2 (GeneID 55748) | no change | no change | 0.72 | -0.22
UBA7 (GeneID 7318) | no change | no change | -0.87 | -1.14
MOSPD1 (GeneID 56180) | no change | no change | -0.74 | 0.83
USP32 (GeneID 84669) | no change | no change | -0.24 | -1.02
CD48 (GeneID 962) | no change | no change | -0.74 | -0.07
ZNF436-AS1 (GeneID 148898) | no change | no change | -0.39 | 1.56
SLC35D1 (GeneID 23169) | no change | no change | 0.95 | -0.9
STC1 (GeneID 6781) | no change | no change | -0.16 | -0.08
NR1D2 (GeneID 9975) | no change | no change | 0.1 | 1.99
MAPK12 (GeneID 6300) | no change | no change | 0.92 | 0.57
SLC25A17 (GeneID 10478) | no change | no change | -0.8 | -1.33
FRMPD1 (GeneID 22844) | no change | no change | 1.61 | -0.38
BIK (GeneID 638) | no change | no change | 0.8 | -0.02
CDK10 (GeneID 8558) | no change (active) | CA2 (caspase activation) | -1.02 | 6.36
EBP (GeneID 10682) | no change | no change | -0.42 | 0.48
SNRPD1 (GeneID 6632) | no change | no change | -3.2 | 0.7
EXOC5 (GeneID 10640) | no change | no change | -1.72 | 2.92
CTRB1 (GeneID 1504) | no change | no change | -1.33 | -0.08
DXO (GeneID 1797) | no change | no change | -1.04 | 2.13
ZNHIT1 (GeneID 10467) | no change | no change | -0.89 | -0.44
C8B (GeneID 732) | no change | no change | 0 | -1.03
OR5B21 (GeneID 219968) | no change | no change | 0.38 | 0.5
ADAM23 (GeneID 8745) | no change | no change | 0.03 | -0.02
SPATA19 (GeneID 219938) | no change | no change | 0.55 | -0.09
PCDHGB5 (GeneID 56101) | no change | no change | 0.62 | 0.1
MACROD2 (GeneID 140733) | no change | no change | -0.9 | -1
ERGIC3 (GeneID 51614) | no change | no change | -2.1 | 1.4
LRTM1 (GeneID 57408) | no change | no change | 0.94 | -0.38
ATP6V0C (GeneID 527) | no change | no change | 0.26 | -0.64
ADAT3 (GeneID 113179) | no change | no change | 0.5 | 1.22
AMZ1 (GeneID 155185) | no change | no change | -1.49 | -0.03
ZIC5 (GeneID 85416) | no change | no change | 1.92 | -0.48
FMNL3 (GeneID 91010) | no change | no change | 0.83 | -0.81
OMA1 (GeneID 115209) | no change | no change | -1.42 | 0.44
RHEB (GeneID 6009) | no change | no change | -0.07 | -0.97
ODAD1 (GeneID 93233) | no change | no change | -0.14 | 0.06
CD37 (GeneID 951) | no change | no change | 0.73 | -0.74
TNNC2 (GeneID 7125) | no change | no change | 0.24 | -0.8
MATN2 (GeneID 4147) | no change | no change | -2.08 | 0.65
CAPRIN2 (GeneID 65981) | no change | no change | -1 | -0.2
PHTF1 (GeneID 10745) | no change | no change | -0.26 | -0.54
CEP63 (GeneID 80254) | no change | no change | 0.52 | -0.88
AQP4 (GeneID 361) | no change | no change | 0.4 | -1.17
CC2D2B (GeneID 387707) | no change | no change | 0.14 | -0.71
GJA3 (GeneID 2700) | no change | no change | -1.72 | 0.82
CD83 (GeneID 9308) | no change | no change | 2.59 | 0.64
SLC13A3 (GeneID 64849) | no change | no change | 0.23 | 0.36
MALT1 (GeneID 10892) | no change | no change | 0.86 | 1.09
TOX3 (GeneID 27324) | no change | no change | 0.12 | 0.67
MYPOP (GeneID 339344) | no change | no change | 0.12 | 3.55
ANKRD46 (GeneID 157567) | no change | no change | 0.63 | 1.06
TRPM1 (GeneID 4308) | no change | no change | -1.16 | 1.54
ITPR3 (GeneID 3710) | no change | no change | 0.14 | -0.66
FRAT1 (GeneID 10023) | no change | no change | 0.01 | 4.31
ERN2 (GeneID 10595) | no change | no change | 0.38 | -1
PLCXD2 (GeneID 257068) | no change | no change | -0.01 | -0.12
USO1 (GeneID 8615) | no change | no change | -0.27 | -0.52
GTF3A (GeneID 2971) | no change | no change | -0.15 | 0.84
CNDP1 (GeneID 84735) | no change | no change | -0.58 | 1.69
CDSN (GeneID 1041) | no change | no change | -0.66 | 0.96
NKX2-5 (GeneID 1482) | no change | no change | -1.09 | 2.36
GRIN2A (GeneID 2903) | no change | no change | 0.26 | 1.2
KCNJ1 (GeneID 3758) | no change | no change | -0.54 | 0.88
CFAP251 (GeneID 144406) | no change | no change | -0.09 | -0.68
DNAJC27 (GeneID 51277) | no change | no change | 0.52 | 1.27
PPP1R3D (GeneID 5509) | no change | no change | -0.54 | 0.46
MIER1 (GeneID 57708) | no change | no change | -0.73 | 0.16
SYNE2 (GeneID 23224) | no change | no change | -0.32 | 0.16
TNFRSF11A (GeneID 8792) | no change | no change | -1.21 | 0.96
SLC6A13 (GeneID 6540) | no change | no change | -0.58 | -0.15
ACTL7A (GeneID 10881) | no change | no change | -0.82 | -0.6
PCSK1 (GeneID 5122) | no change | no change | -0.5 | -0.11
